PubChem BioAssay AID504764, Drosophila RNAi Screening Center | 2011
Aim: 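Genes whose knock-down alters Notch-dependent transcription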 (primary screen). System: Drosophila Kc167 cells. Knock-down reagent: long dsRNA against Drosophila genes. Timing: about 5 days (4 days dsRNA, then 24 h after transfection). Conditions: transfection of constitutively active membrane-tethered Notch lacking the extracellular domain, read 24 h later. Read-out: 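Light from a Notch-responsive E(spl)m3 luciferase reporter under active Notch, with control-promoter and no-Notch reporter wells to normalise; raw counts from paired wells a and b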. Reading the numbers: induced reporter light, run 1, well a and induced reporter light, run 1, well b: higher = more light from the Notch target reporter with active Notch; control promoter light, run 1, well a and control promoter light, run 1, well b: higher = more light from the viral control promoter (cell number, transfection, viability); uninduced reporter light, run 1, well a: higher = more light from the Notch target reporter without active Notch. Hit rule: 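Hit if the duplicate-averaged log2 ratio of induced to control-promoter light gives a plate-wise z beyond ±2, or induced to uninduced beyond ±1.8; weak-control or discordant-duplicate wells dropped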. Calls: active = modifier hit (raised or lowered Notch signal); inactive = not a hit.
The deposit covers about 22,000 reagents; this is an unselected part of those with a known target gene and a result. Over the whole deposit, 403 (1.9%) got an active call. 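Unnormalised raw counts per well; ratio z-scores behind the hit calls and whether each hit raises or lowers signal are not deposited.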 Names joined by + are all predicted targets of the reagent. Not given: the amount of reagent.

The first 5 records, ahead of the listing:
gene knocked down	dsRNA	induced reporter light, run 1, well a	induced reporter light, run 1, well b	control promoter light, run 1, well a	control promoter light, run 1, well b	uninduced reporter light, run 1, well a	Call
l(1)G0020 (lethal (1) G0020)	DRSC18198	1.89e5	1.69e5	2.74e5	3.20e5	12465	inactive
Ddx56 (DEAD-box helicase 56)	DRSC20567	72210	90475	79600	1.13e5	8770	inactive
Eb1	DRSC05016	2.09e5	2.22e5	2.02e5	2.19e5	14540	inactive
Tsp66A + CG42661 + CG42660	DRSC10233	2.18e5	1.97e5	2.43e5	1.95e5	9555	inactive
TM9SF4 (Transmembrane 9 superfamily protein member 4)	DRSC01888	2.80e5	2.19e5	2.29e5	2.57e5	17250	inactive

Main list, from the start:
gene knocked down	dsRNA	induced reporter light, run 1, well a	induced reporter light, run 1, well b	control promoter light, run 1, well a	control promoter light, run 1, well b	uninduced reporter light, run 1, well a	Call
l(1)G0020 (lethal (1) G0020)	DRSC18198	1.89e5	1.69e5	2.74e5	3.20e5	12465	inactive
Ddx56 (DEAD-box helicase 56)	DRSC20567	72210	90475	79600	1.13e5	8770	inactive
Eb1	DRSC05016	2.09e5	2.22e5	2.02e5	2.19e5	14540	inactive
Tsp66A + CG42661 + CG42660	DRSC10233	2.18e5	1.97e5	2.43e5	1.95e5	9555	inactive
TM9SF4 (Transmembrane 9 superfamily protein member 4)	DRSC01888	2.80e5	2.19e5	2.29e5	2.57e5	17250	inactive
TM9SF4 (Transmembrane 9 superfamily protein member 4)	DRSC02537	1.03e5	1.32e5	1.20e5	1.61e5	10678	inactive
CG5890	DRSC15909	1.77e5	1.50e5	1.93e5	2.19e5	13600	inactive
or (orange)	DRSC04329	2.04e5	1.87e5	1.83e5	1.41e5	14325	inactive
CG30122	DRSC06776	94355	91855	1.99e5	2.02e5	7160	inactive
CG30122	DRSC06935	70780	78365	1.15e5	1.27e5	6050	inactive
CG3740	DRSC18508	1.05e5	98310	1.29e5	1.53e5	9740	inactive
Acsx1R (Acyl-CoA synthetase X1 R)	DRSC14339	1.42e5	1.44e5	1.47e5	1.29e5	10425	inactive
CG40045	DRSC21232	76945	67480	86415	70155	7695	inactive
CG16974	DRSC02551	2.32e5	2.29e5	2.17e5	2.25e5	17535	inactive
shakB (shaking B)	DRSC20492	1.15e5	99495	1.31e5	1.37e5	12110	inactive
shakB (shaking B)	DRSC20585	1.34e5	1.11e5	1.11e5	1.45e5	12240	inactive
CG3368	DRSC15485	1.80e5	1.91e5	2.57e5	2.53e5	13460	inactive
Drep4 (DNA fragmentation factor-related protein 4)	DRSC03408	1.44e5	1.56e5	1.94e5	1.98e5	13765	inactive
ReepB (Receptor expression enhancing protein B)	DRSC07150	1.89e5	1.30e5	1.49e5	1.94e5	12442	inactive
CG15710	DRSC06581	1.69e5	1.45e5	1.38e5	1.51e5	14080	inactive
CG1888	DRSC06797	2.03e5	2.41e5	2.91e5	2.72e5	17975	inactive
Tim9a	DRSC19753	1.22e5	1.28e5	1.90e5	2.27e5	8095	inactive
htt (huntingtin)	DRSC16970	98525	1.14e5	1.53e5	1.39e5	9955	inactive
CG15130	DRSC02430	57435	54775	64245	72145	5185	inactive
eca (eclair)	DRSC22290						active
RpL10 (Ribosomal protein L10)	DRSC11947	21020	24250	24295	19942	1575	inactive
ITP (Ion transport peptide)	DRSC04222	1.52e5	1.18e5	1.44e5	1.50e5	9450	inactive
CG17567 (retired record)	DRSC02627	38605	27985	33200	27760	1845	inactive
CG33642	DRSC01325	1.53e5	1.04e5	1.63e5	1.43e5	9935	inactive
Ubqn (Ubiquilin)	DRSC19581	1.25e5	1.30e5	95660	49685	8765	inactive
GstE2 (Glutathione S transferase E2)	DRSC06672	41265	44260	47940	55345	4700	inactive
SH3PX1 (SH3 and PX domain containing 1)	DRSC11139	1.48e5	1.27e5	1.39e5	1.97e5	9435	inactive
CG1677	DRSC18116	1.11e5	1.27e5	1.97e5	2.35e5	8205	inactive
Ge-1	DRSC02938	1.87e5	1.46e5	1.07e5	1.22e5	11610	inactive
CG13907	DRSC08377	1.10e5	1.15e5	1.89e5	2.08e5	10385	inactive
Pa1 (PTIP associated 1)	DRSC19422	1.38e5	1.08e5	1.90e5	1.97e5	8180	inactive
CG13558	DRSC04196	1.79e5	1.42e5	1.55e5	1.43e5	11415	inactive
rdgC (retinal degeneration C)	DRSC11387	82045	52425	71165	58830	4580	inactive
pix (pixie)	DRSC10533	9345	10682	22870	18150	1100	inactive
IntS2 (Integrator 2)	DRSC20094	1.17e5	81680	65650	23800	12885	inactive
CG5938	DRSC15923	1.34e5	1.65e5	2.31e5	2.24e5	12395	inactive
ZC3H3	DRSC10696	33340	35975	42435	39545	2505	inactive
CG3792	DRSC02725	1.35e5	1.19e5	1.21e5	1.33e5	8380	inactive
SPoCk (Secretory Pathway Calcium atpase)	DRSC11675	1.20e5	82110	1.21e5	1.21e5	6732	inactive
SPoCk (Secretory Pathway Calcium atpase)	DRSC11706	66410	70895	78415	90325	6210	inactive
SPoCk (Secretory Pathway Calcium atpase)	DRSC11844	1.54e5	97155	1.35e5	1.03e5	9310	inactive
SPoCk (Secretory Pathway Calcium atpase)	DRSC11845	1.25e5	1.32e5	1.48e5	1.20e5	8240	inactive
sel (seele)	DRSC06232	2.15e5	1.35e5	2.01e5	1.73e5	13560	inactive
mRpL1 (mitochondrial ribosomal protein L1)	DRSC16251	70145	58395	49485	40435	5420	inactive
Neurl4 (Neuralized E3 ubiquitin protein ligase 4)	DRSC10638	1.36e5	1.28e5	84090	1.01e5	10215	inactive
